Laboratory results reported in the supplement of paper PMC10849652.
This is one part of the list.

Amino acid sequences for entries named in this document (tags omitted). A change or cut given only in a name is not applied to a line headed by its entry.
UniProt Q9UMR2: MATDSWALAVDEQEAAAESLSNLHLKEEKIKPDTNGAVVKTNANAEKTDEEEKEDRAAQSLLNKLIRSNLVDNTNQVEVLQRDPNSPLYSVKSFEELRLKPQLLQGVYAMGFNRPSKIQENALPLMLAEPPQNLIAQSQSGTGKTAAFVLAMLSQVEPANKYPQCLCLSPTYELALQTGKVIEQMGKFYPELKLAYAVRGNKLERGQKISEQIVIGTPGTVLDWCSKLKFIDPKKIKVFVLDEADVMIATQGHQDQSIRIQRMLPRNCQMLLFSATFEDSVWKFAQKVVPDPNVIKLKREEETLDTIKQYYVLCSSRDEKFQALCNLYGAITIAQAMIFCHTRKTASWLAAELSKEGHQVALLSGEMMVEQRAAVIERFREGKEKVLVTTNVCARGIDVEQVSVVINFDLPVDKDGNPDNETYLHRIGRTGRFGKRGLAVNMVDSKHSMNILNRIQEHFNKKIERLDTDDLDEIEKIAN
UniProt Q6P158: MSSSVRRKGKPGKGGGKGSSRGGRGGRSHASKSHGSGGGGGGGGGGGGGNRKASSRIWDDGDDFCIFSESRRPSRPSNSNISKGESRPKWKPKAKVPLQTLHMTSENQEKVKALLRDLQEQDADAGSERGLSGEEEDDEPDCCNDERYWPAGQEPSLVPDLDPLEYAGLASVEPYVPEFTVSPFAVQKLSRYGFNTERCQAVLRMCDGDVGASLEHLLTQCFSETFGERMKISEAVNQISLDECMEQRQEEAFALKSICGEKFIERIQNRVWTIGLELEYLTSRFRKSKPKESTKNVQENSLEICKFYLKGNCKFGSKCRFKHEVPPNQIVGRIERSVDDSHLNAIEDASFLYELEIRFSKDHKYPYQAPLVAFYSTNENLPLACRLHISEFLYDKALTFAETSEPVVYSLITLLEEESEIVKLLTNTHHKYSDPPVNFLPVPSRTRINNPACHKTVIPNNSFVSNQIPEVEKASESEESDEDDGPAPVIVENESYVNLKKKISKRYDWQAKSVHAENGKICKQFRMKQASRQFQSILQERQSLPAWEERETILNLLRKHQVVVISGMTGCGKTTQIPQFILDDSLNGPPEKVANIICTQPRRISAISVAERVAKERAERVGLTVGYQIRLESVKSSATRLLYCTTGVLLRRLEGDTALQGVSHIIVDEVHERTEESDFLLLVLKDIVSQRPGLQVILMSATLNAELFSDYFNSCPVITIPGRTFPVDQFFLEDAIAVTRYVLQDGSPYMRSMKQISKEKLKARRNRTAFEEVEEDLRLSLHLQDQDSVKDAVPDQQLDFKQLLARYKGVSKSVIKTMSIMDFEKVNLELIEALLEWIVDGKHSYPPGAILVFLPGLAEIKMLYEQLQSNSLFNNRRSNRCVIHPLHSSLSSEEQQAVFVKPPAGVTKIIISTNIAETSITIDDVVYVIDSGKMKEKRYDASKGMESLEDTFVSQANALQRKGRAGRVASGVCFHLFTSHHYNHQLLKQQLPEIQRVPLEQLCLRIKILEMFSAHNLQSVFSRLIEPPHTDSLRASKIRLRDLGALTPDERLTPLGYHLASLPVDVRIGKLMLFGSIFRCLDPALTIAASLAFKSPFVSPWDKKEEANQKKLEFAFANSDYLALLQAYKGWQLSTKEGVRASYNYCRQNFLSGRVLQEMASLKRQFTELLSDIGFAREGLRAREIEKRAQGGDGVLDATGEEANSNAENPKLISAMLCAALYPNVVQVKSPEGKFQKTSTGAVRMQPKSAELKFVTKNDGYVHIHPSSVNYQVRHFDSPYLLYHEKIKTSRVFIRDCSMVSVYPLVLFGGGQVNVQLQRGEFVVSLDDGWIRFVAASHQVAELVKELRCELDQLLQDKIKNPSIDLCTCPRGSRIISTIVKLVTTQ
UniProt P0CG22: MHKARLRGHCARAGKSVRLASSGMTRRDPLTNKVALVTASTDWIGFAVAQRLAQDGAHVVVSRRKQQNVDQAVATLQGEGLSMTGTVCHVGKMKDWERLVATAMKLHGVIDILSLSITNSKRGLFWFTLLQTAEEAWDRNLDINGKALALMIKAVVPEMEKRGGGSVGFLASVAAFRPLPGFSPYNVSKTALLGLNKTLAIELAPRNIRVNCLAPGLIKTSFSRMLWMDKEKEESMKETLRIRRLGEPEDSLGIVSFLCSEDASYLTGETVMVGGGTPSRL
UniProt Q92841: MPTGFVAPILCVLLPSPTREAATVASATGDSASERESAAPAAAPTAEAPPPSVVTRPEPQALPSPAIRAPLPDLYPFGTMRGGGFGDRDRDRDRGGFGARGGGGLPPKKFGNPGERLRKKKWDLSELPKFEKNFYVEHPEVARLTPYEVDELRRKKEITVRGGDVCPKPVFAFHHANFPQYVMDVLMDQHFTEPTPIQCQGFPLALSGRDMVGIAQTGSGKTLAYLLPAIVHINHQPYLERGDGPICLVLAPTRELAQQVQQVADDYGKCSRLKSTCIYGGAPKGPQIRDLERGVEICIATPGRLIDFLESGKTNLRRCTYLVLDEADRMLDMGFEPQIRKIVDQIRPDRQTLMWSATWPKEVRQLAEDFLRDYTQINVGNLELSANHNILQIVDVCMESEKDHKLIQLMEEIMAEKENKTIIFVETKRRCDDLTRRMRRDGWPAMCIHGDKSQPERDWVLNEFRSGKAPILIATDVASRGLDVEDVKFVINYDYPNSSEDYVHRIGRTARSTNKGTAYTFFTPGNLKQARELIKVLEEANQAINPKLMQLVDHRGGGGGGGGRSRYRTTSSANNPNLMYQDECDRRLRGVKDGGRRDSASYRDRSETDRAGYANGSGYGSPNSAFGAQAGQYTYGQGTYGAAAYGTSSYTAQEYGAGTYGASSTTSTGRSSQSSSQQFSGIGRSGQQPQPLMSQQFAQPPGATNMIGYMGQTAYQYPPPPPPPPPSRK
UniProt Q7Z478: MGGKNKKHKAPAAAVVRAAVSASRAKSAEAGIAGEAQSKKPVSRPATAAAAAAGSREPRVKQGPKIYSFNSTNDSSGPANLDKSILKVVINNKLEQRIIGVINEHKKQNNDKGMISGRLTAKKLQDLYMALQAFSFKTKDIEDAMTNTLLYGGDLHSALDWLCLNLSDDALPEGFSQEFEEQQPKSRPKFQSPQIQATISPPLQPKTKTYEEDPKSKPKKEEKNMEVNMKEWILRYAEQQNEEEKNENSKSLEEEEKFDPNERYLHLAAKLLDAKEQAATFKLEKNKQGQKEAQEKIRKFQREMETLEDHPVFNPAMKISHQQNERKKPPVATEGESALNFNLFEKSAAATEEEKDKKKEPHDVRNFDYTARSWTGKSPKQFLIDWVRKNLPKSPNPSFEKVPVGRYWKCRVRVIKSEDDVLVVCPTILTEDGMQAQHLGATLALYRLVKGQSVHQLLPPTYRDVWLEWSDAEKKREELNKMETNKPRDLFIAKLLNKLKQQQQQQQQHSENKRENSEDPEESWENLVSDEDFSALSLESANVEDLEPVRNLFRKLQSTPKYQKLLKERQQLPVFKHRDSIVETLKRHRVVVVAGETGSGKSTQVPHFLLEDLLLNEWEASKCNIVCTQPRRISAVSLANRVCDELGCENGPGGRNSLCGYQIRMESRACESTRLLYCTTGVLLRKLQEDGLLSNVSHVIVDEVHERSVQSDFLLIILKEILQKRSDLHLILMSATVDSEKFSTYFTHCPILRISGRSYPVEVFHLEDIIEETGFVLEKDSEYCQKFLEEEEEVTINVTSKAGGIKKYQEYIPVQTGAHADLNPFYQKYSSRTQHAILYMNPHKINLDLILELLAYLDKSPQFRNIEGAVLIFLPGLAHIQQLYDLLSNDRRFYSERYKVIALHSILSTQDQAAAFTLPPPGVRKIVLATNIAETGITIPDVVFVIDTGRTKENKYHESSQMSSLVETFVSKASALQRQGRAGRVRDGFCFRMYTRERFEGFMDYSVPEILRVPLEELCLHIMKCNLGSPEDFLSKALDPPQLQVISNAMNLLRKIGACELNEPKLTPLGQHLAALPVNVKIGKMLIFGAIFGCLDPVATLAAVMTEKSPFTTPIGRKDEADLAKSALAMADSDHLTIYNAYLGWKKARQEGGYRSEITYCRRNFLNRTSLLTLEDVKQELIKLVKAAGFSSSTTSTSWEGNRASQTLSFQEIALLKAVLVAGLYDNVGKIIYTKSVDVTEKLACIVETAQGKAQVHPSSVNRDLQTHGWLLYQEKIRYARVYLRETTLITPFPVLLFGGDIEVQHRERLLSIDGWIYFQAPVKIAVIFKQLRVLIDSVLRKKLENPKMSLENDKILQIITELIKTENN
UniProt Q92620: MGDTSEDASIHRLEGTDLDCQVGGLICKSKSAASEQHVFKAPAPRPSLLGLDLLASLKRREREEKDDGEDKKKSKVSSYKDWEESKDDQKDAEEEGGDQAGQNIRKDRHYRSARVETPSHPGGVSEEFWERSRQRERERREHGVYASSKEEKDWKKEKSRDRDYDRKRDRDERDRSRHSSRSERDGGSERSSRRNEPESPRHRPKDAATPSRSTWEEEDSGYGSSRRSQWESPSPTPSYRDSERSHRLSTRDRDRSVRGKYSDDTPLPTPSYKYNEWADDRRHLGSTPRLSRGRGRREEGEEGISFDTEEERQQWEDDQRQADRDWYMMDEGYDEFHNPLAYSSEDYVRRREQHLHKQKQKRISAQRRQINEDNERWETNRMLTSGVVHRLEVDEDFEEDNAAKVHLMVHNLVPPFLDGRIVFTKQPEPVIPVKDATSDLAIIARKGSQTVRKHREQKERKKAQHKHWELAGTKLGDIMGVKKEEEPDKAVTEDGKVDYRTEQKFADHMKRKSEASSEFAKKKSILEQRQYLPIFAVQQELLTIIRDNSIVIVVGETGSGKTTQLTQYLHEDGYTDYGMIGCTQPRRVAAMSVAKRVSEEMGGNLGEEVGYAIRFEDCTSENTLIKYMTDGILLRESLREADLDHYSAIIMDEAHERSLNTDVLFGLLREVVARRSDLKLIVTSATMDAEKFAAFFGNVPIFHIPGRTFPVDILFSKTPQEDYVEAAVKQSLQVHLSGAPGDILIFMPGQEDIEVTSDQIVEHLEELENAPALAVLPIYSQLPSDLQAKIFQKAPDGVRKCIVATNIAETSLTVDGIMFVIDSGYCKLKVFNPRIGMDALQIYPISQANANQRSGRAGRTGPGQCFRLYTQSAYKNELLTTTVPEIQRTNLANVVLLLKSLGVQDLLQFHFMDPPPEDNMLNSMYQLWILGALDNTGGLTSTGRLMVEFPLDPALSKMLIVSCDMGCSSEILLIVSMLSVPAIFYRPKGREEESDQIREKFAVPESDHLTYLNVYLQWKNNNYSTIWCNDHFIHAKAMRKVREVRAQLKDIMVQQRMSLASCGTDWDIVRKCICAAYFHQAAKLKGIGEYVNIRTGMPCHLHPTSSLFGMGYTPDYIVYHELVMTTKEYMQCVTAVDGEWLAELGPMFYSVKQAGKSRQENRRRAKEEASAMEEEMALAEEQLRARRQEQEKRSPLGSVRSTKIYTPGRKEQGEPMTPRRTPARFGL
UniProt Q8IX18: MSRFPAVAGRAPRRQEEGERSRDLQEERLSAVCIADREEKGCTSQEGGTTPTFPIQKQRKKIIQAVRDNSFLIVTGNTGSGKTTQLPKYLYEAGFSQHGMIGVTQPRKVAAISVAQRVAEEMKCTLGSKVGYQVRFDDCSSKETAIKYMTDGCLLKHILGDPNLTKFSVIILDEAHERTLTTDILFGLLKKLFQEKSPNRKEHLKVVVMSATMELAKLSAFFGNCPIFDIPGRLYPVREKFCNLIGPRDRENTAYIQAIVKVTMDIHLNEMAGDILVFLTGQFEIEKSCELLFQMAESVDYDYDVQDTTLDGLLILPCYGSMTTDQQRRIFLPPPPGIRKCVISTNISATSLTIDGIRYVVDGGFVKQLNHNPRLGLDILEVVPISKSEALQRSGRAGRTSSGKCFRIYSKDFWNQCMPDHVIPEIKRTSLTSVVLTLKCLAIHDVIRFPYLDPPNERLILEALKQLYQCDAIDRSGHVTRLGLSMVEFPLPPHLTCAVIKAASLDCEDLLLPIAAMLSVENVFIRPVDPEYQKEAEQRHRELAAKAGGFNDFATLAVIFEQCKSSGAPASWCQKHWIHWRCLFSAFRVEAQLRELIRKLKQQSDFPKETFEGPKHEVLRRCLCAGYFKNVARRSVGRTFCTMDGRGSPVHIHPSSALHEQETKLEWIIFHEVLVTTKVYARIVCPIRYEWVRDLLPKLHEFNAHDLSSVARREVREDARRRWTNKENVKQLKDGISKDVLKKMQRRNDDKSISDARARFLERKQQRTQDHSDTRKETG
UniProt Q9BUN8: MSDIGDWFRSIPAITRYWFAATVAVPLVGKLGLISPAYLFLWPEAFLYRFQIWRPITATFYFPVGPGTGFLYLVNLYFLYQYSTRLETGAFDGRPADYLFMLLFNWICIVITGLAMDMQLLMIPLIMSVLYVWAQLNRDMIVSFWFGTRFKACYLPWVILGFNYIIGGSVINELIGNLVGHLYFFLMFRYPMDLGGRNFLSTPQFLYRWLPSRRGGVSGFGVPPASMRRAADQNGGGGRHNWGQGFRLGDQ

Assays:
Assay in all cases: log2 fold change, soluble protein after heating vs DMSO (PISA); higher = thermal stabilisation; K562 cells, 10 uM, 30 min; active = over 0.2 and 3.5 SD of the protein, either way, in both replicates (recomputed)
[1] = compound: CC[C@@H]1C(=O)N(C)c2cnc(Nc3ccc(C(=O)NC4CCN(C)CC4)cc3OC)nc2N1C1CCCC1
How it was run: (§1)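 Aliquots of K562 cells (2×10^6 cells/mL) treated with 10 μM compound for 30 min were heated for 3 min over 48°C-58°C. After pooling and extraction in PBS with 0.5% NP-40 at 4°C, soluble protein from a 21,000xg, 90 min spin was quantified by TMTpro 16plex LC-MS/MS with channel sums equalised. Thermal stability is expressed against control samples, from duplicates, as a log2 fold change.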

[2] = compound: CC[C@@H]1C(=O)N(C)c2cnc(Nc3ccc(C(=O)N[C@H]4CC[C@H](N5CCN(CC6CC6)CC5)CC4)cc3OC)nc2N1C(C)C [volasertib]
How it was run: as §1

[3] = compound: CC[C@H](C)N1C=C(C2=C(C=C(C=C21)C3=CN=C(C=C3)N4CCNCC4)C(=O)NCC5=C(C=C(NC5=O)C)C)C
How it was run: as §1

[4] = compound: CC[C@H](C)[C@@H](C(=O)N[C@@H]([C@@H](C)O)C(=O)N[C@@H](CC(C)C)C(=O)[C@]1(CO1)C)NC(=O)[C@H]([C@@H](C)CC)N(C)C(=O)C [epoxomicin]
How it was run: as §1

[5] = compound: CCn1c(C(=O)N(C2CC2)C2CC2)cc2c3c(ncn3C)c(Nc3cc(C)n(C)n3)nc21
How it was run: as §1

[6] = compound: CCn1cc(-c2ccnc3[nH]c(-c4cccc(CN(C)C)c4)cc23)c(-c2ccc(NC(=O)N(C)C)cc2)n1
How it was run: as §1

[7] = compound: CN(C)CC(=O)Nc1ccc2[nH]c(=O)c3ccccc3c2c1
How it was run: as §1

[8] = compound: CN(CCOC1=CC=C(C=C1)C[C@H]2C(=O)NC(=O)S2)C3=CC=CC=N3 (racemic) [rosiglitazone]
How it was run: as §1

[9] = compound: CN1C2=C(C3=C1C(=O)N(N=C3)CC4=CC(=CC=C4)N)SC(=C2)S(=O)C
How it was run: as §1

[10] = compound: CN1CCC(CNc2ccc3ncc(-c4cccc(OC(F)(F)F)c4)n3n2)CC1
How it was run: as §1

[11] = compound: CN1CCN(CCOc2cc(OC3CCOCC3)c3c(Nc4c(Cl)ccc5c4OCO5)ncnc3c2)CC1 [saracatinib]
How it was run: as §1

[12] = compound: CN1CCN(c2nc(C3=C(c4c[nH]c5ccccc45)C(=O)NC3=O)c3ccccc3n2)CC1 [sotrastaurin]
How it was run: as §1

[13] = compound: CN1CC[C@H](c2c(O)cc(O)c3c(=O)cc(-c4ccccc4Cl)oc23)[C@H](O)C1 [alvocidib]
How it was run: as §1

[14] = compound: CN1CCc2c(c3ccccc3n2Cc2ccc(C(=O)NO)cc2)C1 [Tubastatin A]
How it was run: as §1

[15] = compound: CNC(=O)C1=CC=CC=C1NC2=NC(=NC=C2Cl)NC3=C(C=C(C=C3)N4CCOCC4)OC
How it was run: as §1

[16] = compound: CNC(=O)c1ccc(Nc2ncc(C(F)(F)F)c(NCc3nccnc3N(C)S(C)(=O)=O)n2)cc1 [defactinib]
How it was run: as §1

[17] = compound: CNCc1ccc(-c2[nH]c3cc(F)cc4c3c2CCNC4=O)cc1 [rucaparib]
How it was run: as §1

[18] = compound: CNc1nc(-c2ccc3c(N)n[nH]c3c2)cc(N2C[C@@H](C(=O)NC3CCCCC3)CC[C@H]2C)n1
How it was run: as §1

[19] = compound: COC(=O)N[C@@H](C)CNc1nccc(-c2cn(C(C)C)nc2-c2cc(Cl)cc(NS(C)(=O)=O)c2F)n1 [encorafenib]
How it was run: as §1

[20] = compound: COC(=O)[C@H](CCSC)NC(=O)C1=C(C=C(C=C1)NC[C@H](CS)N)C2=CC=CC=C2
How it was run: as §1

Measured: log2 fold change

DIS3 (UniProt Q9Y2L1)
inactive: [1] -0.105 | [2] -0.212 | [3] 0.084 | [4] 0.044 | [5] -0.083 | [6] -0.052 | [7] 0.083 | [8] 0.089 | [9] -0.024 | [10] -0.156 | [11] -0.054 | [12] -0.091 | [13] -0.159 | [14] 0.113 | [15] -0.084 | [16] -0.088 | [17] -0.035 | [18] 0.034 | [19] 0.046 | [20] -0.046

DDX59 (UniProt Q5T1V6)
inactive: [1] -0.125 | [2] -0.046 | [3] 0.029 | [4] 0.104 | [5] -0.019 | [6] -0.065 | [7] 0.023 | [8] 0 | [9] -0.049 | [10] 0.014 | [11] 0.001 | [12] -0.002 | [13] -0.063 | [14] 0.014 | [15] 0.033 | [16] -0.054 | [17] -0.065 | [18] -0.003 | [19] 0.118 | [20] -0.009

DNAJA1 (UniProt P31689)
inactive: [1] 0.002 | [2] -0.116 | [3] -0.018 | [4] 0.015 | [5] -0.009 | [6] -0.016 | [7] -0.027 | [8] 0.045 | [9] -0.012 | [10] -0.036 | [11] -0.022 | [12] 0.012 | [13] -0.009 | [14] 0 | [15] -0.02 | [16] -0.031 | [17] -0.015 | [18] -0.037 | [19] 0.003 | [20] 0.008

DERA (UniProt Q9Y315)
inactive: [1] 0.058 | [2] 0.083 | [3] -0.051 | [4] 0.028 | [5] 0.014 | [6] 0.008 | [7] -0.004 | [8] -0.037 | [9] -0.035 | [10] -0.024 | [11] 0.014 | [12] 0.041 | [13] 0 | [14] -0.007 | [15] -0.027 | [16] -0.023 | [17] -0.002 | [18] -0.064 | [19] -0.037 | [20] 0.013

DDX19B (UniProt Q9UMR2)
inactive: [1] -0.083 | [2] -0.19 | [3] 0.06 | [4] 0.024 | [5] -0.006 | [6] -0.023 | [7] 0.022 | [8] 0.025 | [9] -0.046 | [10] -0.097 | [11] 0.02 | [12] -0.002 | [13] -0.059 | [14] -0.017 | [15] -0.039 | [16] -0.056 | [17] -0.004 | [18] -0.012 | [19] 0.014 | [20] -0.03

DHX57 (UniProt Q6P158)
inactive: [1] 0.139 | [2] 0.088 | [3] 0.03 | [4] -0.056 | [5] 0.004 | [6] 0.049 | [7] -0.025 | [8] -0.047 | [9] 0.153 | [10] 0.104 | [11] -0.058 | [12] 0.062 | [13] 0.155 | [14] 0.135 | [15] 0.071 | [16] 0.132 | [17] 0.105 | [18] 0.058 | [19] 0.106 | [20] 0.018

DHRS4L1 (UniProt P0CG22)
inactive: [1] 0.08 | [2] 0.076 | [3] -0.057 | [4] -0.011 | [5] 0.106 | [6] 0.038 | [7] -0.034 | [8] 0.024 | [9] -0.027 | [10] 0.047 | [11] 0.016 | [12] 0.006 | [13] 0.002 | [14] -0.051 | [15] 0.03 | [16] 0.013 | [17] 0.007 | [18] -0.029 | [19] -0.01 | [20] 0.006

DDX17 (UniProt Q92841)
inactive: [1] -0.068 | [2] -0.127 | [3] 0.047 | [4] 0.043 | [5] -0.046 | [6] -0.036 | [7] 0.035 | [8] 0.005 | [9] 0.021 | [10] 0.14 | [11] -0.016 | [12] -0.059 | [13] -0.028 | [14] 0.008 | [15] 0.005 | [16] -0.081 | [17] 0.013 | [18] 0.011 | [19] 0.083 | [20] -0.022

DHX29 (UniProt Q7Z478)
inactive: [1] 0.082 | [2] 0.029 | [3] 0.045 | [4] -0.176 | [5] 0.01 | [6] 0.038 | [7] -0.008 | [8] -0.069 | [9] 0.141 | [10] 0.13 | [11] -0.016 | [12] -0.032 | [13] 0.09 | [14] 0.012 | [15] 0.031 | [16] 0.115 | [17] 0.141 | [18] 0.033 | [19] 0.079 | [20] -0.027

DLGAP4 (UniProt Q9Y2H0)
inactive: [1] 0.013 | [2] -0.011 | [3] -0.004 | [4] 0.016 | [5] 0.027 | [6] -0.002 | [7] -0.033 | [8] 0.034 | [9] -0.028 | [10] -0.043 | [11] 0.036 | [12] 0.032 | [13] 0.046 | [14] -0.008 | [15] -0.025 | [16] -0.032 | [17] -0.042 | [18] 0.016 | [19] 0.006 | [20] 0.006

DHX38 (UniProt Q92620)
inactive: [1] 0.039 | [2] -0.02 | [3] 0.01 | [4] -0.007 | [5] 0.018 | [6] 0.003 | [7] -0.009 | [8] 0.008 | [9] -0.072 | [10] 0.03 | [11] 0.008 | [12] 0.023 | [13] -0.004 | [14] -0.031 | [15] 0.004 | [16] -0.041 | [17] -0.059 | [18] -0.021 | [19] -0.002 | [20] -0.013

DNAH8 (UniProt Q96JB1)
inactive: [1] 0.065 | [2] 0.208 | [3] -0.155 | [4] -0.154 | [5] -0.158 | [7] -0.01 | [8] 0.087 | [9] -0.147 | [11] -0.123 | [12] -0.024 | [13] 0.062 | [14] -0.022 | [15] -0.125 | [16] -0.033 | [17] -0.327 | [18] -0.132 | [19] -0.045 | [20] -0.035

DHX40 (UniProt Q8IX18)
inactive: [1] -0.006 | [2] -0.236 | [3] 0.188 | [4] -0.037 | [6] -0.013 | [7] 0.026 | [9] -0.076 | [10] -0.029 | [11] 0.069 | [12] -0.025 | [14] 0.053 | [15] -0.043 | [16] -0.163 | [17] 0.087 | [18] 0.013 | [19] 0.068 | [20] -0.039

Taken from above (2 entries):
DNAH8 (UniProt Q96JB1)
inactive: [1] 0.065 | [2] 0.208 | [3] -0.155 | [4] -0.154 | [5] -0.158 | [7] -0.01 | [8] 0.087 | [9] -0.147 | [11] -0.123 | [12] -0.024 | [13] 0.062 | [14] -0.022 | [15] -0.125 | [16] -0.033 | [17] -0.327 | [18] -0.132 | [19] -0.045 | [20] -0.035

DHX40 (UniProt Q8IX18)
inactive: [1] -0.006 | [2] -0.236 | [3] 0.188 | [4] -0.037 | [6] -0.013 | [7] 0.026 | [9] -0.076 | [10] -0.029 | [11] 0.069 | [12] -0.025 | [14] 0.053 | [15] -0.043 | [16] -0.163 | [17] 0.087 | [18] 0.013 | [19] 0.068 | [20] -0.039

Additional results:

DDX49 (UniProt Q9Y6V7)
inactive: [1] 0.157 | [2] 0.222 | [3] -0.003 | [4] -0.013 | [5] 0.018 | [6] -0.009 | [7] -0.051 | [8] -0.06 | [9] 0.059 | [10] 0.136 | [11] -0.035 | [12] 0.085 | [13] 0.065 | [14] 0.025 | [15] 0.066 | [16] 0.091 | [17] 0.078 | [18] 0.017 | [19] 0.074 | [20] -0.037

DES (UniProt P17661)
inactive: [1] 0.091 | [2] 0.088 | [3] -0.104 | [4] -0.041 | [5] -0.011 | [6] 0.146 | [7] -0.072 | [8] -0.023 | [9] 0.187 | [10] -0.001 | [11] -0.026 | [12] -0.21 | [13] 0.19 | [14] 0.133 | [15] -0.141 | [16] 0 | [17] -0.078 | [18] 0.011 | [19] -0.009 | [20] -0.008

DERL1 (UniProt Q9BUN8)
inactive: [1] 0.023 | [2] 0.039 | [3] 0.008 | [4] 0.109 | [5] 0.059 | [6] -0.051 | [7] 0.016 | [8] -0.031 | [9] -0.021 | [10] 0.142 | [11] 0.073 | [12] 0.046 | [13] 0.099 | [14] -0.071 | [15] -0.067 | [16] 0.022 | [17] 0.02 | [18] -0.09 | [19] -0.034 | [20] 0.004
